# Measurements taken from publication PMC8211107.
# Chains of the proteins cited; added tags and fusions are not shown. Lines headed by an entry give the natural chain unless they say otherwise; changes in a name come on top.
# UniProt P06239: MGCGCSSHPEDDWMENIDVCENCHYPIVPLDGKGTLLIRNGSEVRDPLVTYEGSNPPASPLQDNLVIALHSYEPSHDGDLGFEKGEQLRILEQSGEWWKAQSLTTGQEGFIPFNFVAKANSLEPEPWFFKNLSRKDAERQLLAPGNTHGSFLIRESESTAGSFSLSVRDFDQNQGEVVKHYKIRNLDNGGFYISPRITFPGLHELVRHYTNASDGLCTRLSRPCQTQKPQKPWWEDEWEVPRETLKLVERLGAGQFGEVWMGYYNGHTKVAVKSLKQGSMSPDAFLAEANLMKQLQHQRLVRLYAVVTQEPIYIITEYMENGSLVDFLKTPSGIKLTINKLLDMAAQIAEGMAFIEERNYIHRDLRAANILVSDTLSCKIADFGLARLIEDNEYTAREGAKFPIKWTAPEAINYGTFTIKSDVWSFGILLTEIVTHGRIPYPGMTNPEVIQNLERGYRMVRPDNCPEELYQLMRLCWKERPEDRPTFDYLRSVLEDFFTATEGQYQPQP
# UniProt P29350: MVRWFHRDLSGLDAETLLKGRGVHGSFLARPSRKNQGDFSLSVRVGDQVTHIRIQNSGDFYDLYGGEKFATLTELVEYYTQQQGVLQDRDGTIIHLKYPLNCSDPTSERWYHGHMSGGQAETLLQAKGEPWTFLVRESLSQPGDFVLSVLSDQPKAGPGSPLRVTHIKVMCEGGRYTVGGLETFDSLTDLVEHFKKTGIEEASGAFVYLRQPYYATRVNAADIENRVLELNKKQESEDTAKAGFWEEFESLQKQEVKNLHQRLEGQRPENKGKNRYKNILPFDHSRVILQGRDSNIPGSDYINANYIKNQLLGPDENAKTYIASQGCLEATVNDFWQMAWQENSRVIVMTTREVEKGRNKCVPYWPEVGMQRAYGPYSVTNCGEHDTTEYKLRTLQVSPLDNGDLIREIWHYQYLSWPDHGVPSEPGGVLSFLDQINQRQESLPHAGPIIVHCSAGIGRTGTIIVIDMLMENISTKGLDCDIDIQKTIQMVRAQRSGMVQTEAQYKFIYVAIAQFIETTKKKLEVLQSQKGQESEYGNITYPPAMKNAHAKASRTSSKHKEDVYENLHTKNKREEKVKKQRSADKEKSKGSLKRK
# What was measured:
# [1] = molecular target: Myc-BbLcLRR (expressed in HEK293T cells) (Branchiostoma belcheri); assay: co-IP; plasmids cotransfected into HEK293T cells; lysates immunoprecipitated with anti-Myc antibody, immunoblotting; with or without pervanadate
# [2] = molecular target: Myc-BbLcLRR wild-type (expressed in Jurkat TAg T cells) (Branchiostoma belcheri); assay: co-IP; Jurkat TAg T cells transfected 48 h, stimulated with anti-CD3 for the indicated times; lysates immunoprecipitated with anti-Myc antibody, immunoblotting with anti-Lck antibody
# [3] = molecular target: Flag-human Lck (expressed in HEK293T cells) (human) (UniProt P06239); assay: co-IP; plasmids cotransfected into HEK293T cells; lysates immunoprecipitated with anti-Flag antibody, immunoblotting
# [4] = molecular target: T1, SHIP1 (expressed in Jurkat TAg T cells) (UniProt Q92835); assay: condition: only resting T cells, without anti-CD3 stimulation; co-IP; plasmids cotransfected into Jurkat TAg T cells, 48 h, resting cells (no anti-CD3 stimulation); lysates immunoprecipitated with anti-Flag antibody, immunoblotting
# T1 sequence: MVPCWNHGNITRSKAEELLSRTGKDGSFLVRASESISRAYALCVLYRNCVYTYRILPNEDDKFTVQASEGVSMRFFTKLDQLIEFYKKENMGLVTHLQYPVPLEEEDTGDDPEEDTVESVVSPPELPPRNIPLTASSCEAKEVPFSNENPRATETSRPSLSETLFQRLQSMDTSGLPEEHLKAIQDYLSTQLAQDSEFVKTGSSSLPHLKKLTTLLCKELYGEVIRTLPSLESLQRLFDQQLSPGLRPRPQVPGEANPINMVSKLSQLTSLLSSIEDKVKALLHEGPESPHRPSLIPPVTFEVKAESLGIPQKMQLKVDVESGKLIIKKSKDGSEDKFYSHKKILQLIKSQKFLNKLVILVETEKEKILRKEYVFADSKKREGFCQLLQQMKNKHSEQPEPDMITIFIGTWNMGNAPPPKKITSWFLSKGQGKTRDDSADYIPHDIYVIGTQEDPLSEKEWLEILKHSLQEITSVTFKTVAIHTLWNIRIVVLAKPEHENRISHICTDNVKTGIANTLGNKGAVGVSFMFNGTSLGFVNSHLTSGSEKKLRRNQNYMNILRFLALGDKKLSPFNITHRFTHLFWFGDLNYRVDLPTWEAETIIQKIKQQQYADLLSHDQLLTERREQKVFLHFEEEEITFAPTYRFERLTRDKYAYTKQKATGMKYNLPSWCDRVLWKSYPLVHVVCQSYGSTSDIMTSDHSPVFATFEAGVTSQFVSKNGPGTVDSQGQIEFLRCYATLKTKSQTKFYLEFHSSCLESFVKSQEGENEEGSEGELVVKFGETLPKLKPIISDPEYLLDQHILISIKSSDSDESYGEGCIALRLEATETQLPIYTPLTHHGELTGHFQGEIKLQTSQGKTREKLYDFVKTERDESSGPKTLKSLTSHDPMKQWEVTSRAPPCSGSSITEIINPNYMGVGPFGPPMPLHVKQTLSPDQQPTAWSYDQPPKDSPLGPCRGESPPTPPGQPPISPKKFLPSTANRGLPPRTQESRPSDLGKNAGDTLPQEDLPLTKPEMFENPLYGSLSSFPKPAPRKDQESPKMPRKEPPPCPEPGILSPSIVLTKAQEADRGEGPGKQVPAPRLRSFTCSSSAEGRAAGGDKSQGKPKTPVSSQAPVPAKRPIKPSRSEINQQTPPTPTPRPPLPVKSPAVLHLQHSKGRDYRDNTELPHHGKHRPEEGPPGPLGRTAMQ
# [5] = molecular target: SHP1 (expressed in Jurkat TAg T cells) (UniProt P29350); assay: as above
# [6] = molecular target: SHP2 (expressed in Jurkat TAg T cells) (UniProt Q06124); assay: as above
# [7] = molecular target: T1, SHIP1 (expressed in Jurkat TAg T cells); assay: co-IP; plasmids cotransfected into Jurkat TAg T cells, 48 h, stimulated with anti-CD3 antibody; lysates immunoprecipitated with anti-Flag antibody, immunoblotting
# [8] = molecular target: SHP1 (expressed in Jurkat TAg T cells) (UniProt P29350); assay: as above
# [9] = molecular target: SHP2 (expressed in Jurkat TAg T cells) (UniProt Q06124); assay: as above
substance,measurement,setting,value
Flag-human Lck (expressed in HEK293T cells) (from UniProt P06239-1 1-509) (enzyme),binding,[1],binds
"Lck, endogenous in Jurkat TAg T cells (from UniProt P06239 1-509) (enzyme)",binding,[2],binds
Myc-BbLcLRR (expressed in HEK293T cells) (from UniProt A0A8A6IFL1) (receptor),binding,[3],binds
Myc-BbLcLRR wild-type (expressed in Jurkat TAg T cells) (from UniProt A0A8A6IFL1) (receptor),binding,[4],no binding
same,binding,[5],no binding
same,binding,[6],no binding
same,binding,[7],binds
same,binding,[8],binds
same,binding,[9],binds

# These are yes or no findings as the source states them, for the method shown. Binding seen in cells or lysates may run through a third protein. For part of these data: Binding calls can cover weak binding; strength is not graded here. For part of these data: Sequences can lack the tags named with a protein.
